Some of these results come from one statement about several compounds together.
Assay: Gelation of 4-PEG-SH with OND linkers, gelation time by inversion test
Format: physicochemical
Conditions: 3.5 wt % 4-PEG-SH, 7% DMSO
Protocol: PEG-OND hydrogels were prepared by mixing tetravalent thiol-terminated PEG (4-PEG-SH, Mw˜2,500 Da for each arm) at 3.5 weight percent and multivalent OND linkers at equimolar concentration of thiol and electrophile in phosphate buffer containing 7% DMSO by volume (FIG. 42). The reactions were mixed briefly and the gel was allowed to cure at temperature or 37° C. Gelation time was recorded as the point at which the sample no longer flowed upon inversion of the reaction vessel.
Trial gelations were performed by premixing a solution of linker 7a with four-armed thiol-terminated poly(ethylene glycol) (4-PEG-SH. Mn=10,000) in neutral water containing 17% DMSO by volume. The overall concentration of PEG macromer was varied from 0.4 wt % to 8.3 wt % while maintaining an equimolar ratio of thiol to electrophile. […]
Based on empirical observations made in these trials, subsequent gels were prepared at room temperature from 3.5 wt % 4-PEG-SH solutions in phosphate buffers containing 7% DMSO at equimolar concentrations of thiol and OND electrophile. […] Gelation time was recorded when the sample no longer flowed and was self-supporting. […] Gelation time at 37° C. was determined by pre-warming 4-PEG-SH macromer and OND stock solutions in a 37° C. water bath. […] Gelation time was determined by the inversion test, as described above. […]

In the case of `CCOC(=O)C1=C(C(F)(F)F)C2C=CC1(CNC(=O)CCCC(=O)NCC13C=CC(O1)C(C(=O)OC)=C3C(=O)OC)O2` (centres unmarked) [Linker 10, Dimethyl 1-((5-(((2-(ethoxycarbonyl)-3-(trifluoromethyl)-7-oxabicyclo[2.2.1]hepta-2,5-dien-1-yl)methyl)amino)-5-oxopentanamido)methyl)-7-oxabicyclo[2.2.1]hepta-2,5-diene-2,3-dicarboxylate], the “Gelation time (self-supporting gel, inversion)” value (pH 7.2, room temperature) is reported as “less than 1.5 minutes” and the “Gelation time (self-supporting gel, inversion)” value (pH 7.4, room temperature) is reported as 30 to 45 s.

Reference: US10517952B2, “Nucleophile-triggered degradable materials and methods of making and using the same” (GEORGIA TECH RESEARCH CORPORATION, priority 2014, dated 2019)
